Experimental data: PubChem BioAssay AID652272 (Drosophila RNAi Screening Center, 2013)

Aim: 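Genome-wide knock-down search for components of Hedgehog signalling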 (primary screen)
System: Drosophila clone 8 (Cl8) cells
Reagents: long dsRNA against Drosophila genes
Measured: 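Plate reader light from a firefly reporter under a ptc promoter fragment that responds to Hedgehog, with Renilla light as transfection reference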
Scale: firefly Hh reporter signal: higher = more ptc reporter light; Renilla reference signal: higher = more Renilla control light
Active means: 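Called a hit if the two-replicate mean z-score lies below -2 or above +3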
Calls: active = hit: reporter lowered or raised; inactive = not a hit
In all, the deposit lists about 21,000 reagents; shown is an unselected part of those that have a named target and a result. Of all reagents, 503 (2.4%) were called active. 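Raw plate light values, not normalised; calls rest on replicate z-scores that were not deposited; hits include reporter decreases as well as increases.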 A number with no mark means an inactive call. A plus sign joins genes that one reagent is predicted to hit. Reagent sequences are not shown. The record does not give: the amount of reagent, the time to read-out.

target,amplicon,"firefly Hh reporter signal, replicate 1","firefly Hh reporter signal, replicate 2","firefly Hh reporter signal, replicate 3","Renilla reference signal, replicate 1","Renilla reference signal, replicate 2"
CG34461 (GeneID 5740547),DRSC10767,56181,79152,,3897,4672
sdk (GeneID 31017),DRSC18831,1.00e5,88800,,2491,2546
COX6B (GeneID 32989),DRSC19590,1.43e5,1.26e5,,3352,3040
ppk9 (GeneID 37498),DRSC04134,1.00e5,57461,,2807,5472
ppk9 (GeneID 37498),DRSC04135,90885,52706,,2564,4842
AP-1mu (GeneID 41150),DRSC14089,1.12e5,73462,,4352,2827
Son (GeneID 41159),DRSC16400,93059,1.09e5,,3270,2540
CG11158 (GeneID 32327),DRSC19389,76011,2.35e5,,3032,10140
CG2129 (GeneID 31741),DRSC18209,90363,97677,,2312,2624
Acbp2 (GeneID 38784),DRSC11141,73097,68564,,7368,5186
dpr8 (GeneID 32387),DRSC19406,58696,1.81e5,,2281,8232
dpr8 (GeneID 32387),DRSC19600,79575,1.34e5,,2253,6064
dpr8 (GeneID 32387),DRSC19938,92536,1.82e5,,2482,7443
dpr8 (GeneID 32387),DRSC19939,88407,1.87e5,,2816,8663
Cyp6g1 (GeneID 36316),DRSC07386,1.07e5,55368,,4440,2226
Lamtor1 (GeneID 40193),DRSC10183,1.47e5,2.43e5,,4720,5993
betaCOP (GeneID 32820),DRSC20312,59988 (active),39316,,1856,1445
CG10068 (GeneID 40852),DRSC12508,95009,83809,,3668,2962
qm (GeneID 38816),DRSC11386,62560,78816,,7072,5436
GstD8 (GeneID 48341),DRSC16689,69209,1.61e5,,2151,3878
CG43174 (retired record) + CG43173 (retired record),DRSC09517,2.10e5,,,4428,
CCT1 (GeneID 42649),DRSC16877,8.83e5,1.53e5,,56362,387
Ptth (GeneID 33238),DRSC00356,1.02e5,1.01e5,,2724,2704
CG8492 (GeneID 38866),DRSC10984,60946,8.31e5,86096,5378,4571
CkIIalpha-i1 (GeneID 39721),DRSC11115,1.42e5,,,5138,4244
PGRP-SC2 (GeneID 35862),DRSC06481,84423,46192,,2034,4161
TpnC25D (GeneID 33752),DRSC02965,85874,36102,,2346,4283
ninaE (GeneID 42367),DRSC17014,5.60e5,1.12e5,,28400,2980
fd102C (GeneID 43843),DRSC17203,1.27e5,3.03e5,,4248,11042
SmydA-8 (GeneID 31200),DRSC18797,1.34e5,2.85e5,,5704,11601
CR6900 (GeneID 14462413),DRSC20018,69643,1.86e5,,1752,8598

3 entries from above, set out differently:
target | amplicon | firefly Hh reporter signal, replicate 1 | firefly Hh reporter signal, replicate 2 | firefly Hh reporter signal, replicate 3 | Renilla reference signal, replicate 1 | Renilla reference signal, replicate 2
Cyp6g1 (GeneID 36316) | DRSC07386 | 1.07e5 | 55368 | – | 4440 | 2226
Lamtor1 (GeneID 40193) | DRSC10183 | 1.47e5 | 2.43e5 | – | 4720 | 5993
betaCOP (GeneID 32820) | DRSC20312 | 59988 (active) | 39316 | – | 1856 | 1445

Continued.
target,amplicon,"firefly Hh reporter signal, replicate 1","firefly Hh reporter signal, replicate 2","firefly Hh reporter signal, replicate 3","Renilla reference signal, replicate 1","Renilla reference signal, replicate 2"
CG16704 (GeneID 33589),DRSC00475,1.82e5,72580,,4224,6960
CG5114 (GeneID 39624),DRSC10482,1.05e5,84966,,4282,3717
CG42541 (GeneID 31344),DRSC17973,75494,1.39e5,,2416,4461
CG42541 (GeneID 31344),DRSC18119,18944 (active),23610,,1202,1578
CG42541 (GeneID 31344),DRSC18120,68326,1.90e5,,2096,7529
CG17196 (GeneID 43112),DRSC15189,7.03e5,1.28e5,,35250,3856
FRG1 (GeneID 40228),DRSC10648,1.23e5,1.11e5,,3958,3353
CG13360 (GeneID 31025),DRSC18536,1.71e5,1.43e5,,3341,5716
Nipped-B (GeneID 3355136),DRSC07815,68368,43597,,2411,2577
CG10584 (GeneID 40324),DRSC11624,1.18e5,1.63e5,,4053,4950
Cyp40 (GeneID 39121),DRSC10980,1.07e5,59184,,4540,2710
CG2641 (GeneID 40921),DRSC15441,54070,98501,,2611,3020
CG17140 + CG17139,DRSC02585,74615,61408,,2165,5688
CG17140 + CG17139,DRSC02586,1.15e5,74156,,3037,6652
Rcd-1 (GeneID 32966),DRSC19569,88858,2.27e5,,2667,8972
Corp (GeneID 31764),DRSC17771,95268,64407,,2512,1403
Rpn6 (GeneID 36638),DRSC07541,19667 (active),19520,,2123,2161
Smu1 (GeneID 42272),DRSC15803,1.29e5,86296,,5108,2948
mthl1 (GeneID 32637),DRSC19905,53236,1.98e5,,2513,8578
EMC2B (GeneID 42045),DRSC15506,35526,68563,,840,1968
ref(2)P (GeneID 35246),DRSC03601,82945,47960,,2221,3931
eIF3d1 (GeneID 42789),DRSC16938,3.64e5,73075,,18352,1987
BomBc3 (GeneID 50055),DRSC15873,8.33e5,1.95e5,,37011,14832
dpr18 (GeneID 32572),DRSC19606,64941,1.48e5,,1203,6548
CG34160 (GeneID 5740175),DRSC01131,5.13e5,2.24e5,,25365,8727
Hasp (GeneID 35238),DRSC02022,99221,55216,,4418,2768
